# The name of at least one read-out is uncertain.
# Assay: Free base solubilization with solubilizers
# Assay type: physicochemical
# Text: The free base was not soluble with various solubilizers.
smiles,measurement,value
"NC(=O)c1cnc(N[C@@H]2CCCC[C@@H]2N)nc1Nc1cccc(-c2ncccn2)c1 [Compound 1, 2-((1R,2S)-2-aminocyclohexylamino)-4-(3-(pyrimidin-2-yl)phenylamino)pyrimidine-5-carboxamide]",solubility with various solubilizers,not soluble
